Values quoted from earlier work as cited in patent US6825194B2, “Hexacyclic compounds” (Chugai Seiyaku Kabushiki Kaisha, priority 2001, dated 2004).

Conditions: cited from earlier work

Compound: CC[C@@]1(O)C(=O)OCc2c1cc1n(c2=O)Cc2cc3ccccc3nc2-1 [camptothecin, 4(S)-ethyl-4-hydroxy-1H-pyrano[3′,4′:6,7]indolizino[1,2-b]quinoline-3,14(4H,12H)-dione]
- solubility in water: poorly soluble in water
